# Some entries share one result that the patent states for a list of compounds.
# Test system: wheat leaf blotch fungus (Septoria tritici)
# Assay: Wheat leaf blotch control test, spray after inoculation
# Type: in vivo
# Details: 200 ppm sprayed on wheat (APOGEE) 3 days after inoculation
row,Compound,area of lesion on treated plant relative to that on an untreated plant [%]
1,"Cn1nnn(-c2ccsc2COc2nc(-c3ccc(Cl)cc3)cs2)c1=O [present compound 8, 2-(4-chlorophenyl)-4-{[4-(4,5-dihydro-4-methyl-5-oxo-1H-tetrazol-1-yl)-3-thienyl]methyloxy}thiazole]",≤ 30
2,"Cn1nnn(-c2ccsc2COc2ccn(-c3ccc(Cl)cc3)n2)c1=O [present compound 7, 1-(2-{[1-(4-chlorophenyl)-1H-pyrazol-3-yl]oxymethyl}-3-thienyl)-4-methyl-1,4-dihydrotetrazol-5-one]",≤ 30
3,"Cn1nnn(-c2cnn(C(C)(C)C)c2COc2ccn(-c3ccc(Cl)cc3)n2)c1=O [present compound 1, 1-(1-tert-butyl-5-{[1-(4-chlorophenyl)-1H-pyrazol-3-yl]oxymethyl}-1H-pyrazol-4-yl)-4-methyl-1,4-dihydrotetrazol-5-one]",≤ 30
4,"COc1ccccc1-n1ccc(OCc2c(-n3nnn(C)c3=O)cnn2C(C)(C)C)n1 [present compound 12, 1-(1-tert-butyl-5-{[1-(2-methoxyphenyl)-1H-pyrazol-3-yl]oxymethyl}-1H-pyrazol-4-yl)-4-methyl-1,4-dihydrotetrazol-5-one]",≤ 30
